PubChem BioAssay AID504808 | Drosophila RNAi Screening Center – 2011

Assay: 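Chromatin factors that keep E2F targets switched off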 (primary screen)
Cells: Drosophila S2 cells
Reagent: long dsRNA against Drosophila genes
Measurement: 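Dual luciferase plate measurements; E2F-specific signal taken as firefly over Renilla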
Scale: E2F firefly: higher = more E2F reporter activity; Renilla normaliser: higher = more normaliser reporter signal
Rule for the call: 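Called active if the normalised E2F reporter went up by over 50%; the cutoff is arbitrary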
The screen tested about 21,000 reagents; this is a random part of those that have a named target and a result. Of all reagents, 18 (0.084%) got an active call. 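Raw counts without plate normalisation, one of two replicates; the ratio scores behind the calls were not deposited.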 Names joined by + are all predicted targets of the reagent. No sequences are given here. Not given: the amount of reagent, the time to read-out.

Gene | DRSC id | E2F firefly, rep 1 | Renilla normaliser, rep 1 | outcome
CG4537 | DRSC02756 | 1.45e5 | 5413 | inactive
CG12783 | DRSC14538 | 1.17e5 | 6586 | inactive
Vha44 | DRSC07572 | 76255 | 3375 | inactive
Vha44 | DRSC07573 | 1.33e5 | 5397 | inactive
Gip | DRSC18667 | 50430 | 3507 | inactive
fs(2)ltoPP43 | DRSC02067 | 89294 | 3921 | inactive
E(spl)m4-BFM | DRSC16992 | 97162 | 6105 | inactive
l(2)03659 | DRSC07269 | 1.35e5 | 5330 | inactive
l(2)03659 | DRSC07638 | 1.48e5 | 5171 | inactive
C3G | DRSC17745 | 1.12e5 | 5360 | inactive
C3G | DRSC17929 | 6052 | 355 | inactive
CG7631 | DRSC01873 | 92551 | 3826 | inactive
CG6420 | DRSC16035 | 1.15e5 | 6297 | inactive
Caper | DRSC02137 | 88655 | 3223 | inactive
CG11999 | DRSC12185 | 1.14e5 | 6600 | inactive
bgcn | DRSC04062 | 1.00e5 | 4454 | inactive
bgcn | DRSC04063 | 95283 | 3998 | inactive
Zyx | DRSC17186 | 75843 | 2897 | inactive
CG9993 | DRSC04599 | 97485 | 4065 | inactive
sev | DRSC20372 | 1.29e5 | 6468 | inactive
Dnz1 | DRSC03317 | 89194 | 3569 | inactive
Cog2 | DRSC16987 | 1.00e5 | 6215 | inactive
l(3)mbn | DRSC08793 | 1.22e5 | 4111 | inactive
Mpc1 | DRSC14770 | 75501 | 3717 | inactive
Spn28F | DRSC03615 | 1.30e5 | 4697 | inactive
Ilp8 | DRSC10076 | 1.51e5 | 7213 | inactive
CG14710 | DRSC14933 | 70417 | 3718 | inactive
CG4991 | DRSC19928 | 1.61e5 | 5079 | inactive
Tmem63 | DRSC06063 | 1.46e5 | 4797 | inactive
CG15549 | DRSC15087 | 1.32e5 | 7492 | inactive
Sf3b6 | DRSC09972 | 85021 | 3946 | inactive
Ir40a | DRSC03732 | 1.09e5 | 4238 | inactive
Ir40a | DRSC03733 | 1.04e5 | 4447 | inactive
CG7997 | DRSC07052 | 72787 | 3002 | inactive
CG7065 | DRSC18420 | 8302 | 848 | inactive
Vps35 | DRSC04519 | 78942 | 3509 | inactive
Snx16 | DRSC06984 | 1.52e5 | 5439 | inactive
Rab9D + Rab9Fa + Rab9E | DRSC19853 | 1.42e5 | 6150 | inactive
Lsp1gamma | DRSC08672 | 72446 | 3502 | inactive
Karybeta3 | DRSC12355 | 89771 | 4060 | inactive
CG31360 | DRSC13255 | 82850 | 3211 | inactive
Cad96Ca | DRSC14220 | 1.17e5 | 5387 | inactive
Cad96Ca | DRSC16693 | 1.10e5 | 6115 | inactive
Gr58b | DRSC04140 | 1.04e5 | 4428 | inactive
Eh | DRSC16660 | 1.11e5 | 5819 | inactive
CR18275 | DRSC18151 | 53824 | 4437 | inactive
CG6833 | DRSC10721 | 70074 | 3406 | inactive
larp | DRSC14728 | 1.08e5 | 5823 | inactive
larp | DRSC16984 | 1.07e5 | 7269 | inactive
CG30411 | DRSC04004 | 1.37e5 | 5589 | inactive
CG13455 | DRSC10002 | 1.65e5 | 6375 | inactive
Ogdh | DRSC09854 | 84054 | 3461 | inactive
Ogdh | DRSC09855 | 1.51e5 | 9217 | inactive
CG10934 | DRSC06017 | 69358 | 3129 | inactive
CG33140 | DRSC06030 | 90907 | 3463 | inactive
Srg2 + CG42826 | DRSC10681 | 78336 | 3554 | inactive
Srg2 + CG42826 | DRSC10682 | 5055 | 263 | inactive
Blimp-1 | DRSC10496 | 84290 | 3367 | inactive

Laid out differently: results already given.
{"Gene": "larp", "DRSC id": "DRSC14728", "E2F firefly, rep 1": 1.08e5, "Renilla normaliser, rep 1": 5823, "outcome": "inactive"}
{"Gene": "larp", "DRSC id": "DRSC16984", "E2F firefly, rep 1": 1.07e5, "Renilla normaliser, rep 1": 7269, "outcome": "inactive"}
{"Gene": "CG30411", "DRSC id": "DRSC04004", "E2F firefly, rep 1": 1.37e5, "Renilla normaliser, rep 1": 5589, "outcome": "inactive"}
{"Gene": "CG13455", "DRSC id": "DRSC10002", "E2F firefly, rep 1": 1.65e5, "Renilla normaliser, rep 1": 6375, "outcome": "inactive"}
{"Gene": "Ogdh", "DRSC id": "DRSC09854", "E2F firefly, rep 1": 84054, "Renilla normaliser, rep 1": 3461, "outcome": "inactive"}
{"Gene": "Ogdh", "DRSC id": "DRSC09855", "E2F firefly, rep 1": 1.51e5, "Renilla normaliser, rep 1": 9217, "outcome": "inactive"}
{"Gene": "CG10934", "DRSC id": "DRSC06017", "E2F firefly, rep 1": 69358, "Renilla normaliser, rep 1": 3129, "outcome": "inactive"}
{"Gene": "CG33140", "DRSC id": "DRSC06030", "E2F firefly, rep 1": 90907, "Renilla normaliser, rep 1": 3463, "outcome": "inactive"}
{"Gene": "Srg2 + CG42826", "DRSC id": "DRSC10681", "E2F firefly, rep 1": 78336, "Renilla normaliser, rep 1": 3554, "outcome": "inactive"}
{"Gene": "Srg2 + CG42826", "DRSC id": "DRSC10682", "E2F firefly, rep 1": 5055, "Renilla normaliser, rep 1": 263, "outcome": "inactive"}

Further results follow:
Gene | DRSC id | E2F firefly, rep 1 | Renilla normaliser, rep 1 | outcome
CG13251 | DRSC11699 | 1.14e5 | 5863 | inactive
CG9109 | DRSC03139 | 97549 | 3362 | inactive
Ssl | DRSC04657 | 1.05e5 | 3578 | inactive
CG8353 | DRSC03084 | 1.38e5 | 4596 | inactive
CG6567 + CG4565 | DRSC15599 | 1.40e5 | 7109 | inactive
CG4593 | DRSC18374 | 1.11e5 | 6028 | inactive
HUWE1 | DRSC20089 | 1.87e5 | 7270 | inactive
CG34334 | DRSC20643 | 1.36e5 | 6736 | inactive
CG8303 | DRSC07140 | 1.40e5 | 4428 | inactive
Pglym87 | DRSC15252 | 67544 | 3820 | inactive
jb | DRSC20531 | 1.40e5 | 7138 | inactive
CG7320 | DRSC10810 | 1.55e5 | 8167 | inactive
CG31809 | DRSC01561 | 1.41e5 | 5637 | inactive
GAPcenA | DRSC10771 | 87981 | 3639 | inactive
Chmp1 | DRSC10401 | 87998 | 4165 | inactive
CG31760 | DRSC02590 | 1.11e5 | 4371 | inactive
CG14691 | DRSC14914 | 1.62e5 | 6311 | inactive
phol | DRSC10367 | 74036 | 3383 | inactive
NimB1 | DRSC01880 | 1.01e5 | 3612 | inactive
BobA | DRSC09889 | 1.48e5 | 6699 | inactive
CG13836 (retired record) | DRSC14686 | 1.08e5 | 6335 | inactive
para | DRSC19141 | 78494 | 2573 | inactive
para | DRSC20360 | 1.44e5 | 5774 | inactive
Or9a | DRSC18692 | 1.28e5 | 5927 | inactive
Jon99Fii + Jon99Cii + Jon99Ciii + 1 more | DRSC15298 | 1.36e5 | 6276 | inactive
Hph | DRSC12164 | 72881 | 2944 | inactive
Hph | DRSC12251 | 1.04e5 | 4525 | inactive
Neb-cGP | DRSC17991 | 1.32e5 | 6108 | inactive
CG9512 | DRSC20189 | 7583 | 848 | inactive
CG3529 | DRSC10369 | 70044 | 3970 | inactive
arx | DRSC10386 | 65812 | 3696 | inactive
so | DRSC07693 | 69392 | 147 | inactive
CG32425 | DRSC11739 | 83905 | 5896 | inactive
CG32425 | DRSC11764 | 71321 | 3283 | inactive
CG30356 | DRSC05119 | 1.26e5 | 5522 | inactive
hts | DRSC07629 | 1.22e5 | 4947 | inactive
MKP-4 | DRSC19567 | 1.73e5 | 5276 | inactive
CG2247 | DRSC19844 | 8515 | 876 | inactive
CG9084 | DRSC07335 | 95270 | 4187 | inactive
CG33251 (retired record) + CG9915 | DRSC20217 | 1.37e5 | 5643 | inactive
ckn | DRSC06149 | 3116 | 209 | inactive
CG42360 | DRSC04224 | 1.03e5 | 4848 | inactive
CG18473 | DRSC16381 | 1.29e5 | 6125 | inactive
Gbp1 | DRSC06592 | 1.65e5 | 5317 | inactive
zen | DRSC12632 | 1.35e5 | 5606 | inactive
CG18682 (retired record) | DRSC15373 | 1.11e5 | 5553 | inactive
CG18682 (retired record) | DRSC15374 | 1.11e5 | 5409 | inactive
l(3)07882 | DRSC15882 | 61629 | 3216 | inactive
Ctns | DRSC15175 | 1.07e5 | 6539 | inactive
